The source of these data is the supplement of paper PMC5770031.

The list shows a part of the results. Repeats in this data set agree poorly, so a single value says little.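 ATM8/balancer (normal ATM) heterozygous flies were crossed on treated food; parents laid eggs 5–6 days, offspring developed ~12 days, so parents and larvae ingested compound. Readout: fraction of emerged adults homozygous for ATM8 versus 2% DMSO controls. Compounds were neutral at 10–20% homozygotes, harmful below 10%, helpful above 20%.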

This assay has as its system Drosophila melanogaster ATM8 (temperature-sensitive ATM allele). As to the kind of experiment: fraction of eclosed F1 progeny that are homozygous ATM8 (rescue of developmental lethality); higher = more rescue of ATM8 developmental lethality; extreme values may be limits of the assay. As to conditions: compound concentration applied to food 0.2 mM; 21 °C.
With `CO[C@@]1(NC(=O)CSCC#N)C(=O)N2C(C(=O)O)=C(CSc3nnnn3C)CS[C@@H]21`, the “fraction of eclosed F1 progeny that are homozygous ATM8” value (from here on “fraction”) amounted to 0.0286.

In the case of `CC([C@H](O)c1ccccc1)N(C)C` (some centres not stated), the “fraction” value was 0.25.

For `Cc1ncc(C[n+]2csc(CCO)c2C)c(=O)[nH]1`, the “fraction” value was determined as 0.11.

For the molecule `CCOC(=O)C(C)(C)Oc1ccc(Cl)cc1`, the “fraction” value was determined as 0.185.

Regarding `CN1CCc2cccc3c2[C@H]1Cc1ccc(O)c(O)c1-3`, the “fraction” value stood at 0.0303.

Consider `COc1ccc(OC)c(C(O)C(C)N)c1` (configuration not stated), for which the “fraction” value is 0.158.

Consider `CCC(Cc1c(I)cc(I)c(N)c1I)C(=O)O` (configuration not stated), for which the “fraction” value was 0.

For the molecule `CCC(NC(C)C)C(O)c1ccc(O)c(O)c1` (configuration not stated), the “fraction” value was found to be 0.143.

Consider `C[C@]12CC[C@@H]3c4ccc(O)cc4CC[C@H]3[C@@H]1CC[C@@H]2OC(=O)CCC1CCCC1`, for which the “fraction” value was found to be 0.2.

In the case of `O=C1C=C2CC3(O)COc4c(ccc(O)c4O)C3=C2C=C1O` (configuration not stated), the “fraction” value was 0.157.

As to `CN1CC(=O)NC1=N`, the “fraction” value was found to be 0.22.

With `NCCCCNCCCN`, the “fraction” value is 0.14.

Turning to `CC(C)(C(=O)c1cccnc1)c1cccnc1`, the “fraction” value came out at 0.192.

On to `CC(=O)N(O)CCCCCNC(=O)CCC(=O)N(O)CCCCCNC(=O)CCC(=O)N(O)CCCCCN`, for which the “fraction” value was 0.0727.

As for `C=CC(C)(O)CCC1C(=C)CC(O)C2C(C)(C)CCCC12C` (configuration not stated), the “fraction” value was determined as 0.0513.

As for `CCNC(=O)CC[C@H](N)C(=O)O`, the “fraction” value was 0.103.

Turning to `OC[C@H]1O[C@@H]2O[C@H]3[C@H](O)[C@@H](O)[C@@H](O[C@H]4[C@H](O)[C@@H](O)[C@@H](O[C@H]5[C@H](O)[C@@H](O)[C@@H](O[C@H]6[C@H](O)[C@@H](O)[C@@H](O[C@H]7[C@H](O)[C@@H](O)[C@@H](O[C@H]8[C@H](O)[C@@H](O)[C@@H](O[C@H]1[C@H](O)[C@H]2O)O[C@@H]8CO)O[C@@H]7CO)O[C@@H]6CO)O[C@@H]5CO)O[C@@H]4CO)O[C@@H]3CO` [beta-CYCLODEXTRIN], the “fraction” value is 0.0727.

Take `CC(C)/N=c1\cc2n(-c3ccc(Cl)cc3)c3ccccc3nc-2cc1Nc1ccc(Cl)cc1`: the “fraction” value stood at 0.222.

For `O=C1Cc2cc(CCN3CCN(c4nsc5ccccc45)CC3)c(Cl)cc2N1`, the “fraction” value amounted to 0.0455.

As for `O=C1C(Cl)=C(Cl)C(=O)C(Cl)=C1Cl`, the “fraction” value came to 0.0444.

As to `CC1CCc2c(N3CCC(O)CC3)c(F)cc3c(=O)c(C(=O)O)cn1c23` (configuration not stated), the “fraction” value amounted to 0.13.

As to `C[C@@H]1CC[C@]2(NC1)O[C@H]1C[C@H]3[C@@H]4CC=C5C[C@@H](O)CC[C@]5(C)[C@H]4CC[C@]3(C)[C@H]1[C@@H]2C`, the “fraction” value is 0.163.

On to `Clc1ccc(COC(Cn2ccnc2)c2ccc(Cl)cc2Cl)c(Cl)c1` (configuration not stated), for which the “fraction” value was 0.0385.

For the molecule `O=C(O)c1cc(O)c2c(c1)[C@@H]([C@H]1c3cc(C(=O)O)cc(O)c3C(=O)c3c(O[C@@H]4O[C@H](CO)[C@@H](O)[C@H](O)[C@H]4O)cccc31)c1cccc(O[C@@H]3O[C@H](CO)[C@@H](O)[C@H](O)[C@H]3O)c1C2=O`, the “fraction” value came to 0.241.

Turning to `O=c1c2ccccc2oc2ccccc12`, the “fraction” value is 0.0625.

Take `CO[C@H]1O[C@@H]2O[C@@]3(C)CC[C@H]4[C@H](C)CC[C@@H]([C@H]1C)[C@@]24OO3`: the “fraction” value stood at 0.333.

On to `CN1CCN(C2=Nc3cc(Cl)ccc3Nc3ccccc32)CC1`, for which the “fraction” value came out at 0.263.

As to `CCCCCCCCCCCCCCCC(=O)NCCO`, the “fraction” value came to 0.0256.

In the case of `C=C1C2CC[C@@]3(C)[C@H](c4ccoc4)OC(=O)C[C@]13O[C@H]1CC(O)C(C)(C)C(CC(=O)OC)[C@@]21C` (stereo partly drawn) [3alpha-HYDROXY-3-DEOXYANGOLENSIC ACID METHYL ESTER], the “fraction” value worked out at 0.163.

On to `CC(=O)O[C@H]1CC[C@]2(C)C3=C(CC[C@H]2C1(C)C)[C@]1(C)CC[C@H]([C@H](C)CCC=C(C)C)[C@@]1(C)CC3`, for which the “fraction” value is 0.225.

`Nc1ncnc(Nc2ccc(Cl)cc2)n1`: the “fraction” value came out at 0.103.

Consider `O=C(O)c1ccccc1Nc1ccccc1`, for which the “fraction” value worked out at 0.0909.

Take `Oc1ccc(Cl)cc1Cc1cc(Cl)ccc1O`: the “fraction” value was found to be 0.234.

As to `NS(=O)(=O)c1cc(C(=O)O)c(NCc2ccco2)cc1Cl`, the “fraction” value came to 0.04.

Regarding `COc1ccc2oc(-c3ccccc3)c(OC)c(=O)c2c1`, the “fraction” value was determined as 0.118.

With `O=C(O)c1cc(=O)c2ccccc2o1`, the “fraction” value is 0.14.

Consider `CC(=O)CC(=O)CCC(=O)O`, for which the “fraction” value was found to be 0.122.

For `Cl[C@H]1[C@H](Cl)[C@@H](Cl)[C@@H](Cl)[C@H](Cl)[C@H]1Cl`, the “fraction” value amounted to 0.235.

For the molecule `Cc1cc(C2CCCCC2)n(O)c(=O)c1`, the “fraction” value was 0.082.

As for `O=C(O)c1cc2cc(Cl)ccc2[nH]1`, the “fraction” value turned out to be 0.17.

As for `C[C@H](N)C(=O)NC(Cc1ccccc1)C(=O)O` (mixture of isomers), the “fraction” value stood at 0.265.

For `CN[C@H](CC(C)C)C(=O)N[C@H]1C(=O)N[C@@H](CC(N)=O)C(=O)N[C@H]2C(=O)N[C@H]3C(=O)N[C@H](C(=O)N[C@H](C(=O)O)c4cc(O)cc(O)c4-c4cc3ccc4O)[C@H](O)c3ccc(c(Cl)c3)Oc3cc2cc(c3O[C@@H]2O[C@H](CO)[C@@H](O)[C@H](O)[C@H]2O[C@H]2C[C@](C)(N)[C@H](O)[C@H](C)O2)Oc2ccc(cc2Cl)[C@H]1O`, the “fraction” value was 0.0417.

Regarding `CNS(=O)(=O)Cc1ccc2[nH]cc(CCN(C)C)c2c1`, the “fraction” value was 0.

In the case of `NS(=O)(=O)c1cc2c(cc1Cl)N=CNS2(=O)=O`, the “fraction” value worked out at 0.111.

With `C#CCCCCCCCCCCCC(O)CC(O)CO.C=CCCCCCCCCCCCC(O)CC(O)CO` (configuration not stated), the “fraction” value is 0.333.

As for `CCOc1ccc2c(c1)C(C)=CC(C)(C)N2`, the “fraction” value was 0.148.

With `CCC(CCC(C)C1CCC2C3CCC4CC(O)CCC4(C)C3CCC12C)C(C)C` (configuration not stated), the “fraction” value is 0.238.
